According to doi:10.64898/2025.12.29.696918:
Results are given in words; binding and its absence hold for the method and conditions named. Binding seen in cells or lysates may run through a third protein. Some binding calls cover weakened binding; strength is not graded here.

Protein sequences, listed by entry. Tags and fused reporters are not part of them.
UniProt Q86XR7: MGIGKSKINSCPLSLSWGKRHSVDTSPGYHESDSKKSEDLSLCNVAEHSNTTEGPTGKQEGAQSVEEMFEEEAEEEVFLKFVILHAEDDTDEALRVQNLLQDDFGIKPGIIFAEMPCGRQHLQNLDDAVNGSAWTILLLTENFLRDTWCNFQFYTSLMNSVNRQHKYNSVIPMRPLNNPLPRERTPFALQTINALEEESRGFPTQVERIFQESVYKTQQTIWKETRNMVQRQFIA

T1: biotinylated P7-Pen (SLAMF1-derived peptide P7 joined to penetratin)
T1 sequence (peptide, biotin covalently linked to the C-terminal lysine): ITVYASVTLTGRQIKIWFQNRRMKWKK

T2: biotinylated Penetratin (control peptide)
T2 sequence (peptide, biotin covalently linked to the C-terminal lysine): RQIKIWFQNRRMKWKK


Tests used:
[1] = target: T1, biotinylated P7-Pen (SLAMF1-derived peptide P7 joined to penetratin); experiment: pull-down
[2] = target: T2, biotinylated Penetratin (control peptide); experiment: pull-down

Row | binding [1] | binding [2] | Molecule
1 | binds |  | TRAM (from UniProt Q86XR7 1-235)
2 | binds | no binding | lysine deacetylase ABHD14B (enzyme, UniProt Q96IU4 1-210) MAASVEQREGTIQVQGQALFFREALPGSGQARFSVLLLHGIRFSSETWQNLGTLHRLAQAGYRAVAIDLPGLGHSKEAAAPAPIGELAPGSFLAAVVDALELGPPVVISPSLSGMYSLPFLTAPGSQLPGFVPVAPICTDKINAANYASVKTPALIVYGDQDPMGQTSFEHLKQLPNHRVLIMKGAGHPCYLDKPEEWHTGLLDFLQGLQ
